In assay [1] the target is T1, PaxA_(981-1084), T1-CDD di-domain construct (apo), X. cabanillasii JM26 (Xenorhabdus cabanillasii JM26) (UniProt W1J0W9).
T1 sequence: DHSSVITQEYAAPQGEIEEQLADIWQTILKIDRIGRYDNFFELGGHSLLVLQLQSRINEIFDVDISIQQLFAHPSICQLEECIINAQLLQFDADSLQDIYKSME
Description: NMR solution structure; 1:1 complex of PaxA T1-CDD di-domain and PaxB NDD (X. cabanillasii), from intra- and intermolecular NOEs; both purified.

The target of assay [2] is T2, PaxA_(981-1071), isolated PaxA T1 domain, X. cabanillasii JM26 (Xenorhabdus cabanillasii JM26) (UniProt W1J0W9).
T2 sequence: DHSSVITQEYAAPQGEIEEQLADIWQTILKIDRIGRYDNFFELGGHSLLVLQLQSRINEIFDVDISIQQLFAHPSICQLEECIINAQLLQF
Nature of the assay: ITC; PaxA construct titrated with the PaxB NDD peptide or its variant; n=3 for the variants; both purified. For orientation: Isothermal titration calorimetry measures the heat released or taken up as one component is titrated into another.

Assay [3] deals with T3, PaxA T1-CDD di-domain with the Ppant moiety (holo), X. cabanillasii JM26 (Xenorhabdus cabanillasii JM26) (UniProt W1J0W9).
T3 sequence (chain, phosphopantetheinyl (Ppant) arm attached to residue S1027): T1 sequence
Described as above.

Assay [4] addresses T4, PaxA_(1066-1084), isolated PaxA CDD, X. cabanillasii JM26 (Xenorhabdus cabanillasii JM26) (UniProt W1J0W9).
T4 sequence: AQLLQFDADSLQDIYKSME
Described as above.

For assay [5], the target named is T1, PaxA_(981-1084), T1-CDD di-domain construct (apo), X. cabanillasii JM26 (Xenorhabdus cabanillasii JM26). Nature of the assay: NMR titration; both purified.
For assay [6] the target is unchanged. Description: ITC; PaxA construct titrated with the PaxB NDD peptide or its variant; n=3 for the variants; both purified.
In assay [7] the target is T5, PaxA_(1071-1089) (PaxA CDD), X. bovienii SS-2004 (Xenorhabdus bovienii SS-2004).
T5 sequence: AQLLQFDAESLQDLYKTMG
Described as above.

The target in assay [8] is T6, PaxA_(986-1076), isolated T1 domain, X. bovienii SS-2004 (Xenorhabdus bovienii SS-2004).
T6 sequence: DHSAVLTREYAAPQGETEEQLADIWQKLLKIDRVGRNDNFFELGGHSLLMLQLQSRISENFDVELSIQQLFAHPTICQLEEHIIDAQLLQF
Described as above.

No constants are given. Whether binding was seen depends on the method and setting. For some assays here: A result given as binding can be weak or reduced; the word gives no strength.

“PaxB_(1-30) (PaxB NDD), X. cabanillasii JM26 (Xenorhabdus cabanillasii JM26) (domain or fragment)”: the binding entry in assay [1] was “binds”; in assay [2] it was “no binding”; in assay [3], “binds”; in assay [4], “no binding”; in assay [5], “binds”.

As for “PaxB NDD variant where residues 1-8 were deleted, X. cabanillasii JM26 (Xenorhabdus cabanillasii JM26) (domain or fragment)”, in assay [6], the binding entry is recorded as “no binding”.

With “PaxB_(1-36) (PaxB NDD), X. bovienii SS-2004 (Xenorhabdus bovienii SS-2004) (domain or fragment)”, the binding result in assay [7] and in assay [8] was “binds weakly” in each case.

The record behind these values is PMC8251938, “Cooperation between a T Domain and a Minimal C‐Terminal Docking Domain to Enable Specific Assembly in a Multiprotein NRPS” (Angewandte Chemie (International Ed. in English), 2021).
